{
  "sequences": {"note": "By UniProt entry, the sequences of proteins in these tests, tags left out. Where a name states a change or a piece, a line headed by the entry shows the natural chain unless it says otherwise.", "UniProt Q91ZW8": "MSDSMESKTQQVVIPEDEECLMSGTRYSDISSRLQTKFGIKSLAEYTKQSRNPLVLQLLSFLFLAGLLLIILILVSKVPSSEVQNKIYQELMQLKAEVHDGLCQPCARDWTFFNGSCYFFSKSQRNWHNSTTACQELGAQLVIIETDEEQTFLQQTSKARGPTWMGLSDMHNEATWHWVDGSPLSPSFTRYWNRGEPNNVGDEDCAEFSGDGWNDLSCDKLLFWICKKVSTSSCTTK"},
  "source": "patent US20200172582A1",
  "key": {"[1]": {"molecular_target": "T1, Lactobacillus acidophilus surface layer protein A (SlpA), purified from strain NCK2187 (Lactobacillus acidophilus) (UniProt P35829)", "T1 sequence": "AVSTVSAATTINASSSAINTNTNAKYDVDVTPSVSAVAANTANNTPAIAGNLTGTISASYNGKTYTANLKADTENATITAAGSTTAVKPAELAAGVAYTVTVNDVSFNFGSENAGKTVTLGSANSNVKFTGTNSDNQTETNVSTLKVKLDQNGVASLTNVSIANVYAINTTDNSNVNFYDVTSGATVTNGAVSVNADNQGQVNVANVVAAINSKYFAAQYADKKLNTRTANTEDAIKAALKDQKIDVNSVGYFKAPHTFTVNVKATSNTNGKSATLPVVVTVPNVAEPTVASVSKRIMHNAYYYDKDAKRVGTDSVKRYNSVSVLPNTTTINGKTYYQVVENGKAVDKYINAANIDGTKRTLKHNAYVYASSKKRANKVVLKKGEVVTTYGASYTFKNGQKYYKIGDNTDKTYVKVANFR", "assay": "flow cytometry of SlpA-coated beads with SIGNR3-hFc (FIG. 5B)"}, "[2]": {"molecular_target": "T1, Lactobacillus acidophilus surface layer protein A (SlpA), purified from strain NCK2187 (Lactobacillus acidophilus)", "assay": "flow cytometry of SlpA-coated beads with hFc fusion proteins"}},
  "note": "No constants are given. Whether binding was seen depends on the method and setting. Some entries that bind do so weakly or less than the wild type.",
  "data": [
    {"substance": "SIGNR3-hFc (extracellular region of murine SIGNR3 fused to the Fc part of human IgG1) (from UniProt Q91ZW8 76-237; P01857 104-330) (Fc fusion)", "values": [
      {"measurement": "binding", "setting": "[1]", "value": "binds"},
      {"measurement": "binding", "setting": "[2]", "value": "binds"}
    ]}
  ]
}
